Measurements reported in paper PMC5803261.

Amino acid sequences for entries named in this document (tags omitted).
UniProt P31749: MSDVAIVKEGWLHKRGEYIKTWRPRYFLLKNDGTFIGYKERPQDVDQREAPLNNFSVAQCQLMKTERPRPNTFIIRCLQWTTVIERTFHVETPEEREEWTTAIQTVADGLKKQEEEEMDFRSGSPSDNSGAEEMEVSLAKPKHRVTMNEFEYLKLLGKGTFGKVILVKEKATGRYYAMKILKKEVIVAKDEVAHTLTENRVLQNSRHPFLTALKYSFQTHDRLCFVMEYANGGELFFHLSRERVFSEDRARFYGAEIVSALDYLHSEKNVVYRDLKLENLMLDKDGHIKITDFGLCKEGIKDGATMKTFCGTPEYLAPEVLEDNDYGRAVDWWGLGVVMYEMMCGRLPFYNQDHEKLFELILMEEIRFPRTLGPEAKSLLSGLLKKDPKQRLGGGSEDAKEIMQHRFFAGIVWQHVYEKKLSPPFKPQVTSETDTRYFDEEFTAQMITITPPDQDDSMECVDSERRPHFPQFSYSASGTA

Target: GST-radixin (expressed in HEK293T) (rat) (UniProt E9PT65)
Experiment: pull-down; HEK293T cells co-transfected with GST-radixin and GFP-USP14 or GFP; serum-starved, EGF (50 ng/ml) for 15 minutes; GST pulldown of lysates

Akt found in the GST-radixin pull-down from HEK293T cells (from UniProt P31749 1-480)
binding: binds

These are yes or no findings as the source states them, for the method shown. Binding seen in cells or lysates may run through a third protein. A result given as binding can be weak or reduced; the word gives no strength.
